Measurements from paper PMC7819943, “Rice protein-binding microarrays: a tool to detect cis-acting elements near promoter regions in rice”.
This is one part of the list.

The chains behind the UniProt entries cited, without tags or fusion partners.
UniProt Q0JBA9, entry or part of it: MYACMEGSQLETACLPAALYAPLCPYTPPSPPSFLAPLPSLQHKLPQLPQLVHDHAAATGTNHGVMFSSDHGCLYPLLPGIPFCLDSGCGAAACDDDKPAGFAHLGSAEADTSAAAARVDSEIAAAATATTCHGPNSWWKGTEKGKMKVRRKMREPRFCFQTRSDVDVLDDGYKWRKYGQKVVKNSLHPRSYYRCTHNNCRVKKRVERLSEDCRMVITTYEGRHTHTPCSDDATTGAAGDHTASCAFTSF

Biological target: OsWRKY34 (Oryza sativa, UniProt Q0JBA9 1-250)
Assay: protein-binding microarray (RPBM); PBS, 2% BSA, 51.3 ng/ul salmon testes DNA, 50 uM zinc acetate, 200 nM TF, 25 C, 1 h; high values mean tight binding
Details: protein: recombinant; tags: N-terminal polyhistidine and DsRed monomer fusion (pET32a); label: CyDye5-dUTP incorporated in the synthesized complementary strand; 3' TTTTT single-stranded linker to array surface; dsDNA, one strand shown
Summary of the method: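 Transcription factors were made in E. coli BL21-CodonPlus as N-terminal fusions to a polyhistidine tag and DsRed, then purified on Ni–NTA. After primer extension with Cy5-dUTP and blocking with 2% BSA, a custom Agilent array was exposed for 1 h at 25 °C to 200 nM protein in PBS, 2% BSA, salmon testes DNA and 50 µM zinc acetate. Washed arrays were scanned on an Axon 4000B, and the binding signal is per-feature fluorescence intensity in arbitrary units.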

| Sequence | binding signal |
| --- | --- |
| GAGAATGGAACAATATAGGGGTATTGCTAGTGGGCGGGTGCGGAGTCACCTAGTGCAG | 9830 fluorescence intensity (a.u.) |
| CTTCTTTCCTCTCTGAGCCATTTTCAGCCCATGTTCTTCACGGAGTCACCTAGTGCAG | 9190 fluorescence intensity (a.u.) |
| GATCGCACACCCAATTGATCACTCATTATGGCGTATTCCGCGGAGTCACCTAGTGCAG | 8780 fluorescence intensity (a.u.) |
| GTTATTAGTCTATGTTTAATACTTCAAATGTGTGTTTGTACGGAGTCACCTAGTGCAG | 9290 fluorescence intensity (a.u.) |
| CACCTGTATCTCATCGACCCTGAAGCTTCAACATTGCTAACGGAGTCACCTAGTGCAG | 14500 fluorescence intensity (a.u.) |
| CAGAGCCCTCACGCTTCCGCAACCACCACCGCGTCCGTGACGGAGTCACCTAGTGCAG | 10400 fluorescence intensity (a.u.) |
| CGAACCACTTGCTCCCGCCATTAATCGCTTCCTCCAACTCCGGAGTCACCTAGTGCAG | 9270 fluorescence intensity (a.u.) |
| TATCTTGCCTAGCATATTGTCCGTGCGTTATTGCGATTTTCGGAGTCACCTAGTGCAG | 10500 fluorescence intensity (a.u.) |
| TTATTTTCTTCGTATTGATTTATTGTACAATGTTACTGTACGGAGTCACCTAGTGCAG | 8250 fluorescence intensity (a.u.) |
| TCCAGCTGTTGTTCTTGATTCCTTGTTCTTCGGCGATCATCGGAGTCACCTAGTGCAG | 8850 fluorescence intensity (a.u.) |
| CCGGCCATGAATTCCTACGTCCGTCACTGTTCACATCTATCGGAGTCACCTAGTGCAG | 9710 fluorescence intensity (a.u.) |
| CTTGCGGTTCATTTGGGGTTGGTTGGTTCTAGGGTACTGTCGGAGTCACCTAGTGCAG | 16700 fluorescence intensity (a.u.) |
| ATGTTTACTAGTTAACTAGCATTCCTTTAATTTCATATTTCGGAGTCACCTAGTGCAG | 8850 fluorescence intensity (a.u.) |
| TCCTGTGTTTTTCCTATTCCTCTGTTTTTTCATTCCTACGCGGAGTCACCTAGTGCAG | 14000 fluorescence intensity (a.u.) |
| TCCGCCGTCGTCTTTTTTGCGCAAACTTCCACACCACCACCGGAGTCACCTAGTGCAG | 10900 fluorescence intensity (a.u.) |
| AGCTTCGACACTGCACTCAATGCCCTCACACGCTAAAGGCCGGAGTCACCTAGTGCAG | 8360 fluorescence intensity (a.u.) |
| CTCTCTTTATGTATGTCTCCCATTCACGTAGGCGTGTTATCGGAGTCACCTAGTGCAG | 8100 fluorescence intensity (a.u.) |
| CTCAGGTCAAACTTGGACTTTATCCATCATTCCATCCTCTCGGAGTCACCTAGTGCAG | 8830 fluorescence intensity (a.u.) |
| CCGGCGCCACCAGCTTCCCGCTCGTCATCAACAGCGCCGCCGGAGTCACCTAGTGCAG | 9690 fluorescence intensity (a.u.) |
| ATGAGTATATATAAGCTTAGTCTCTTTTCTTTTCTTTCTTCGGAGTCACCTAGTGCAG | 8940 fluorescence intensity (a.u.) |
| GCTTGGCCTCTCTCTCTTTAGTTTAGCCGCAAACAATTTCCGGAGTCACCTAGTGCAG | 9000 fluorescence intensity (a.u.) |
| TGTATTCCGCTCCGGTTCGGCGACACTCCACGTTCCAGTCCGGAGTCACCTAGTGCAG | 8620 fluorescence intensity (a.u.) |
| ACTACCTCCACCCTCTTCTCTAATGATTTGCCTCGCTTGACGGAGTCACCTAGTGCAG | 8500 fluorescence intensity (a.u.) |

Another view of some results above:
Sequence	binding signal
ATGAGTATATATAAGCTTAGTCTCTTTTCTTTTCTTTCTTCGGAGTCACCTAGTGCAG	8940 fluorescence intensity (a.u.)
GCTTGGCCTCTCTCTCTTTAGTTTAGCCGCAAACAATTTCCGGAGTCACCTAGTGCAG	9000 fluorescence intensity (a.u.)
